Values of other authors in US6716854B2, “Treatments for restless legs syndrome” (Pfizer, Inc., priority 2000, dated 2004).
For at least one compound, name, drawing or mass did not settle the structure.

Test system: restless leg syndrome patients
Details: 7.5 mg administered 1 to 3 hours prior to sleep; cited from earlier work

CC(C)C[C@H]1C(=O)N2CCC[C@H]2[C@]2(O)O[C@](NC(=O)[C@@H]3C=C4c5cccc6[nH]c(Br)c(c56)C[C@H]4N(C)C3)(C(C)C)C(=O)N12 [Bromocriptine]
patients reporting better subjective improvement in restlessness and paresthesia compared to placebo: 5 of 6
